These are yes or no findings as the source states them, for the method shown. Some results given as binding are weak or reduced against the parent protein; the word gives no strength.
Legend:
[1] = biological target: FLAG-AML1-ETO (UniProt Q01196); test: chromatin immunoprecipitation with anti-FLAG in KCL22 cells, PCR of c-kit promoter
[2] = biological target: AML1-ETO fusion protein (UniProt Q01196); test: EMSA with nuclear extracts of transfected Cos7 cells, myb consensus oligonucleotide; supershift
[3] = biological target: AML1-ETO fusion protein (UniProt Q01196); test: EMSA with nuclear extracts of transfected Cos7 cells; supershift (legend of FIG. 2)
[4] = biological target: AML1-ETO fusion protein (UniProt Q01196); test: summary sentence opening Example 4 (rests on EMSA and ChIP of Examples 2 and 3)

By UniProt entry, the sequences of proteins in these tests, tags left out. Where a name states a change or a piece, a line headed by the entry shows the natural chain unless it says otherwise.
UniProt Q01196: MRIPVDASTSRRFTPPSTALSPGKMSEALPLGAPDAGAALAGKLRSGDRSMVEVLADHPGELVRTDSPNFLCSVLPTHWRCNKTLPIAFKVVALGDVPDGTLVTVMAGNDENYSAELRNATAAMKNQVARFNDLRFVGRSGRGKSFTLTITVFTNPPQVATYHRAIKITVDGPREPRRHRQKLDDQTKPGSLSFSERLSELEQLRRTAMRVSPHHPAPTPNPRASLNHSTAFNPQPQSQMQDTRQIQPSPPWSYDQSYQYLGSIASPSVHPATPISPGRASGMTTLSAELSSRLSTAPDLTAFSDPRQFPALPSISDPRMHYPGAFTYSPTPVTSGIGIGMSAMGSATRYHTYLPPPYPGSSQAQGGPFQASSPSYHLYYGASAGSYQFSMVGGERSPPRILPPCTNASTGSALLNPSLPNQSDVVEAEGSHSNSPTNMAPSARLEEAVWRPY
UniProt P06876: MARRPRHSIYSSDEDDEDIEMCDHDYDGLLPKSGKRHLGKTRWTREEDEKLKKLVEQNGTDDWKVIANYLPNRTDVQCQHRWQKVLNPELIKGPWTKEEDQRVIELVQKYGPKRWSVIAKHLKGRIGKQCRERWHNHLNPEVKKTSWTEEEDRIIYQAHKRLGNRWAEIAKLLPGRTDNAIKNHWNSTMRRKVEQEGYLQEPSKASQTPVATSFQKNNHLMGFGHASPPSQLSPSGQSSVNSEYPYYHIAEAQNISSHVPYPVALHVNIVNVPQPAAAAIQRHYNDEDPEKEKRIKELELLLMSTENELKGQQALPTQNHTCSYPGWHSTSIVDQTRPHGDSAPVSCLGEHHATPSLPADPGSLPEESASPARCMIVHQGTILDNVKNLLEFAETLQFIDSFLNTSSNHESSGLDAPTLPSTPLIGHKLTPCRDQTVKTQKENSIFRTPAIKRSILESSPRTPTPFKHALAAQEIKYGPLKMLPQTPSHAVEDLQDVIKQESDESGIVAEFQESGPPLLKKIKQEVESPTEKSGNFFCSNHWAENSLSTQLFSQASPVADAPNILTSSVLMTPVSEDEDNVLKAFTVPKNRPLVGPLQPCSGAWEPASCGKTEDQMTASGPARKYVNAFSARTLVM

Measured: binding

GFP-M&M (from UniProt P06876 65-198; Q99607 87-206) (designed binder)
binds: all assays above

From patent publication US20060166876A1
